Data source: PubChem BioAssay AID1259308 (NCATS, 2017)
Aim: 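Candidate targets for better recombinant protein yield in mammalian cells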 (primary screen). Cells: human HEK293 embryonic kidney cells stably expressing firefly luciferase (HEK-CMV-Luc2-Hygro). Reagents: single siRNA against human genes, 0.8 pmol siRNA per well. Duration: 72 h. Measured: 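Reporter luminescence and viable-cell signal on separate replicate plates, given as percent of non-targeting control and median/MAD z-scores, plus per-cell luciferase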. Scale: total luciferase, z-score and total luciferase, % of control: higher = more reporter protein produced; luciferase per cell, z-score: higher = more reporter output per viable cell; viable cells, % of control: higher = more viable cells. Rule for the call: 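An siRNA counts as active if its total luciferase robust z-score exceeds 3; genes with two or more such siRNAs out of three were retested with fresh siRNAs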. Meaning of the calls: active = raised luciferase; inactive = no rise.
The deposit covers about 59,000 reagents; shown is an unselected part. About 1,510 of all reagents (2.6%) were called active. 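Calls use total luciferase alone and ignore viability, so some active siRNAs may act by altering cell number.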 Unmarked entries are inactive. The numbers tell different reagents against one gene apart.

target	reagent	total luciferase, z-score	total luciferase, % of control	luciferase per cell, z-score	viable cells, % of control
ZP1 (zona pellucida glycoprotein 1)	1	0.227	86.4	-0.192	102
ZP1 (zona pellucida glycoprotein 1)	2	1.94	120	1.31	95.4
ZP1 (zona pellucida glycoprotein 1)	3	0.575	93.3	1.03	79.5
FADS2 (fatty acid desaturase 2)	1	0.911	100	0.518	97.5
FADS2 (fatty acid desaturase 2)	2	2.69	135	1.68	97.2
FADS2 (fatty acid desaturase 2)	3	-1.38	54.4	-1.64	93.6
ZMYND15 (zinc finger MYND-type containing 15)	1	-0.994	62.1	-0.842	86.6
ZMYND15 (zinc finger MYND-type containing 15)	2	0.99	102	0.978	87.8
ZMYND15 (zinc finger MYND-type containing 15)	3	0.338	88.6	-0.0534	100
ENAM (enamelin)	1	2.45	131	2.29	79.9
ENAM (enamelin)	2	1.63	114	2.08	73.8
ENAM (enamelin)	3	-0.872	64.6	-0.47	81.6
COG7 (component of oligomeric golgi complex 7)	1	2.24	126	1.63	92
COG7 (component of oligomeric golgi complex 7)	2	-1.19	58.3	-1.08	86.5
COG7 (component of oligomeric golgi complex 7)	3	-0.09	80.1	0.589	76.6
LCK (LCK proto-oncogene, Src family tyrosine kinase)	1	0.27	87.3	-0.158	102
LCK (LCK proto-oncogene, Src family tyrosine kinase)	2	-0.174	78.4	-0.144	91
LCK (LCK proto-oncogene, Src family tyrosine kinase)	3	0.194	85.8	0.789	77.9
BMP2KL (BMP2 inducible kinase like (pseudogene))	1	0.227	86.4	0.151	92.8
BMP2KL (BMP2 inducible kinase like (pseudogene))	2	2.71	136	1.65	98.3
BMP2KL (BMP2 inducible kinase like (pseudogene))	3	0.701	95.8	0.0933	104
FLYWCH2 (FLYWCH family member 2)	1	0.506	91.9	1.1	77
FLYWCH2 (FLYWCH family member 2)	2	0.484	91.5	0.76	83.7
FLYWCH2 (FLYWCH family member 2)	3	0.756	96.9	1.21	78.9

Part of the list above, reformatted:
ZP1 (zona pellucida glycoprotein 1) #3 — total luciferase, z-score: 0.575; total luciferase, % of control: 93.3; luciferase per cell, z-score: 1.03; viable cells, % of control: 79.5
FADS2 (fatty acid desaturase 2) #1 — total luciferase, z-score: 0.911; total luciferase, % of control: 100; luciferase per cell, z-score: 0.518; viable cells, % of control: 97.5
FADS2 (fatty acid desaturase 2) #2 — total luciferase, z-score: 2.69; total luciferase, % of control: 135; luciferase per cell, z-score: 1.68; viable cells, % of control: 97.2
